From ChEMBL document CHEMBL5154710, “Discovery of small molecules interacting at lactate dehydrogenases tetrameric interface using a biophysical screening cascade” (Eur J Med Chem, 2022)

Key:
[1] = Inhibition of LDH-5 (unknown origin) assessed as denaturation of LDH-5 using NADH and pyruvate as substrate by spectrophotometric analysis; parameters: species or system Homo sapiens
[2] = Stabilization of Red-dye-NHS fluorescent-labeled human LDH-Htr expressed in Escherichia coli assessed as dissociation constant by MST assay
[3] = Destabilization of Red-dye-NHS fluorescent-labeled human LDH-1 expressed in Escherichia coli assessed as dissociation constant by MST assay
[4] = Destabilization of Red-dye-NHS fluorescent-labeled human LDH-5 expressed in Escherichia coli assessed as dissociation constant by MST assay

IC50 [1]: 970 µM
Compound: CNCCCC12CCC(c3ccccc31)c1ccccc12 [MAPROTILINE]
Kd [2]: 37 µM | Kd [3]: 150 µM | Kd [4]: 205 µM
